Like-named read-outs stand apart in the source and are kept apart here. These are yes or no findings as the source states them, for the method shown. In cells and extracts the contact can be indirect. Some binding calls cover weakened binding; strength is not graded here.
Legend:
FLAG-tagged β-catenin = FLAG-tagged β-catenin (UniProt P35222); assay: co-IP; HEK293 cells co-transfected with FLAG-β-catenin and myc-LRRK2, lysed 24 h later in 150 mM NaCl, 50 mM Tris pH 7.5, 2 mM EDTA, 1% Triton X-100; anti-FLAG M2 affinity gel 1 h at 4 °C, eluted with 3xFLAG peptide; blot for myc; no proteasome inhibitor
[1] = molecular target: GST-ECT (E-cadherin cytosolic tail expressed as a GST fusion protein) (human) (UniProt P12830); assay: pull-down; GST-ECT on glutathione-Sepharose beads (20 μl) incubated overnight at 4 °C with mouse brain lysate (2 mg total protein; 50 mM Tris pH 7.5, 150 mM NaCl, 5 mM MgCl2, 1% NP-40); five washes; blot for β-catenin; brains of wild-type, Lrrk2 heterozygous and Lrrk2 knockout mice; only the target purified
[2] = molecular target: GST-ECT (E-cadherin cytosolic tail expressed as a GST fusion protein) (human) (UniProt P12830); assay: as above; remark: listed apart in the source

Protein sequences, listed by entry. Tags and fused reporters are not part of them. Residues count along the entry.
UniProt P35222: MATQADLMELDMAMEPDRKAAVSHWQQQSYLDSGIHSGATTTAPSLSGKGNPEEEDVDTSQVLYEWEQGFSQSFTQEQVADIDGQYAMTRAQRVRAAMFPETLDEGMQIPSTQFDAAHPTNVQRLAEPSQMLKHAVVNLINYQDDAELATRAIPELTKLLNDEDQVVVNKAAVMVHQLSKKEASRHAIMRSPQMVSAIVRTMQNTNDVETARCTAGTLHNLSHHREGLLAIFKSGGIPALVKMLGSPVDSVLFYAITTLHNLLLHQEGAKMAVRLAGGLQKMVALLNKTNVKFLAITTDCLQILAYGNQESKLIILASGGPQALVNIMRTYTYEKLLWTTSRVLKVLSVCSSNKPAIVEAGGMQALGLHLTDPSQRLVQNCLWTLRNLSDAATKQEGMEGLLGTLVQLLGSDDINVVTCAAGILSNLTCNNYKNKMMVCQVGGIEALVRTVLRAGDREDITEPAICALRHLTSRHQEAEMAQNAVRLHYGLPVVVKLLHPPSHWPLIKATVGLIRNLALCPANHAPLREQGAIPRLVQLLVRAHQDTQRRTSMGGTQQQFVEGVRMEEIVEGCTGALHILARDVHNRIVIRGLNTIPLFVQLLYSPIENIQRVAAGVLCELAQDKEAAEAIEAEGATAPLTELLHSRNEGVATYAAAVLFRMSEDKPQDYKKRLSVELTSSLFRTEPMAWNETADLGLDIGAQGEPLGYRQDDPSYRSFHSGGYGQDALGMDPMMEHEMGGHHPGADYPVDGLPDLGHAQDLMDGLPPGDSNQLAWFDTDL
UniProt P12830, residues 732-882: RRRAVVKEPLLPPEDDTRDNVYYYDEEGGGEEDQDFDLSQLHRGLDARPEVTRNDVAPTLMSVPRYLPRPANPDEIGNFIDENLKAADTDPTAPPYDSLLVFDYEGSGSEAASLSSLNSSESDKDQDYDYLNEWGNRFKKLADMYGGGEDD
UniProt Q5S007: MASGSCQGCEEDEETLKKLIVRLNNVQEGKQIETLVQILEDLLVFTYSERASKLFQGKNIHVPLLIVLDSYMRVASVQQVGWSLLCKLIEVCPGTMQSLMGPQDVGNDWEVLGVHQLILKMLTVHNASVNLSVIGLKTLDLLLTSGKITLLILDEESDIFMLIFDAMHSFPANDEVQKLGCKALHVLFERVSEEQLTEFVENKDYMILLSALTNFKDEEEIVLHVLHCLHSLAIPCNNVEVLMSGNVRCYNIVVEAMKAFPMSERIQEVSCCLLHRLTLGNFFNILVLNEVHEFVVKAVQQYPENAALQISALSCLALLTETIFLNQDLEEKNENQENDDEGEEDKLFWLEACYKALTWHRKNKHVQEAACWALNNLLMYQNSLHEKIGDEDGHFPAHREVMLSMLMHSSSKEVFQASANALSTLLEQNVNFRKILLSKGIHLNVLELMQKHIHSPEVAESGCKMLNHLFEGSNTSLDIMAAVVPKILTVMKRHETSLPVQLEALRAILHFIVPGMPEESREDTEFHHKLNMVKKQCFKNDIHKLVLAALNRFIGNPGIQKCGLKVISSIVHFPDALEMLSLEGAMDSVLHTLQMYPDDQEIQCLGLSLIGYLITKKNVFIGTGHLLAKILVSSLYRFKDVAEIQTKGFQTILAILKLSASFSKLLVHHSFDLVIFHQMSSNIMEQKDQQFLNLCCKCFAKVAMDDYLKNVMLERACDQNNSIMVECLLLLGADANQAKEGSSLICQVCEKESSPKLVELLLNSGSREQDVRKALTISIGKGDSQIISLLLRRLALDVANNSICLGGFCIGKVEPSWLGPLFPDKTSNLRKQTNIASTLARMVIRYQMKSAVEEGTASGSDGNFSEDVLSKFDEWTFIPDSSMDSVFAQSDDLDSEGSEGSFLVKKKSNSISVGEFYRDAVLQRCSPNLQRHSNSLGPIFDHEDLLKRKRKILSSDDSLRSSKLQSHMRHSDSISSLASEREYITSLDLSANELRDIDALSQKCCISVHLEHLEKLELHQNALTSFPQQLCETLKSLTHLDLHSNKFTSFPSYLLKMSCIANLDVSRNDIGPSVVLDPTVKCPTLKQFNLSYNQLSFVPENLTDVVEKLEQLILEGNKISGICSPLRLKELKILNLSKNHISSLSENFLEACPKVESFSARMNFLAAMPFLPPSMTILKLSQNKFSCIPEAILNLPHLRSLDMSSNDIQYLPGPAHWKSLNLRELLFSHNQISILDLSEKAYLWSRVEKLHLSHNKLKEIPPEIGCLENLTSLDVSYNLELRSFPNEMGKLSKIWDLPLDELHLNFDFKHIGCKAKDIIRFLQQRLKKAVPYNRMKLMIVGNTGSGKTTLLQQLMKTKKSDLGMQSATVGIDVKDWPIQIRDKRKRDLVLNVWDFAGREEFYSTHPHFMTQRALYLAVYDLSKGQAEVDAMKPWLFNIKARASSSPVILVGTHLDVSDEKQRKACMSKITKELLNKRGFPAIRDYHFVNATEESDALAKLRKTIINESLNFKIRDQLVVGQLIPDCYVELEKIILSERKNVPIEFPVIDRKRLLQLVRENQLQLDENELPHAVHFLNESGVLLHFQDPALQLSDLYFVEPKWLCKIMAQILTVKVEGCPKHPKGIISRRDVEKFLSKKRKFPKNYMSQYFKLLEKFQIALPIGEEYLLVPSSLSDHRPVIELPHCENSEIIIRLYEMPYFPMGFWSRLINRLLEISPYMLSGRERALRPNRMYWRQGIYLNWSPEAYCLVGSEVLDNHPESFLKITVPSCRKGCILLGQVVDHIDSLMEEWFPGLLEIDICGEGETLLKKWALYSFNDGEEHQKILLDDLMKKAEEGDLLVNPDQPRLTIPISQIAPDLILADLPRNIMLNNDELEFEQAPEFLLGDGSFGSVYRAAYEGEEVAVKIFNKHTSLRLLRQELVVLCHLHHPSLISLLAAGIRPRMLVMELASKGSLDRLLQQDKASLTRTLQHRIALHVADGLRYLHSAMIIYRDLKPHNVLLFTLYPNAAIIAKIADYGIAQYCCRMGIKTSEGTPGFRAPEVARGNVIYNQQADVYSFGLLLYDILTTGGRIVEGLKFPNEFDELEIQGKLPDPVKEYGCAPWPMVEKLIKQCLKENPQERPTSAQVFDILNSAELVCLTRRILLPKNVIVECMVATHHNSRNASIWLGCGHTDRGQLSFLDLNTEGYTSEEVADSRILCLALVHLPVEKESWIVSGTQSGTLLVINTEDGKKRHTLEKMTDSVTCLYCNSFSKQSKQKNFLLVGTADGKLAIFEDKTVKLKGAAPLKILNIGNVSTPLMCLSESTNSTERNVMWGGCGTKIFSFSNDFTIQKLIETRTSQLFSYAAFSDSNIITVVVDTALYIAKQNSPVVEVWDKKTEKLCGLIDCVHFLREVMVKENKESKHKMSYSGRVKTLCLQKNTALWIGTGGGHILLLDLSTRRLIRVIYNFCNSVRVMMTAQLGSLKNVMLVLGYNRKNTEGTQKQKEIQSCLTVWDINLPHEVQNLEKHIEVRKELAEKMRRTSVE
UniProt Q02248: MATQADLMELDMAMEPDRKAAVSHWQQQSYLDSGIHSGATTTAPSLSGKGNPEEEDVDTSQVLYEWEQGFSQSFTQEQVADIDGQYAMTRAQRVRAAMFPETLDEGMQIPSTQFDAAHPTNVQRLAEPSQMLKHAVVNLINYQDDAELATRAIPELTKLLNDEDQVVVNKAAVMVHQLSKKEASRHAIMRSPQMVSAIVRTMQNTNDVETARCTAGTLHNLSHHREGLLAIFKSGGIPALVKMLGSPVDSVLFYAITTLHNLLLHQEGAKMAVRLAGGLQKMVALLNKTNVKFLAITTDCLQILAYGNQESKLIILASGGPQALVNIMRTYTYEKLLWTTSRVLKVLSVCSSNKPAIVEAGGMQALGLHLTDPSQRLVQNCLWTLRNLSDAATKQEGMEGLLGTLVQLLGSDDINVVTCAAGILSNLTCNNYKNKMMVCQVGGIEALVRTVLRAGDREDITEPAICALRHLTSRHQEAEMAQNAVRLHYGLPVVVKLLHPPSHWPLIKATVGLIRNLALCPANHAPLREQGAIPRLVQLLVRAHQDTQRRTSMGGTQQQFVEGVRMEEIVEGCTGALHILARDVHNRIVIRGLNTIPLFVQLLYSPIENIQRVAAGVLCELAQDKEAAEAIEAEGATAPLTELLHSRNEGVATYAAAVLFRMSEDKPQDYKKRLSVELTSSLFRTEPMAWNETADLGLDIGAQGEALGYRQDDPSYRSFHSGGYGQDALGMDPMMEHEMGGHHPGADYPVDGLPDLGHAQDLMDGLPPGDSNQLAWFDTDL

myc-tagged LRRK2 (leucine-rich repeat kinase 2) (from UniProt Q5S007 1-2527)
binding (FLAG-tagged β-catenin): binds

β-catenin (free, monomeric; endogenous in mouse brain) (from UniProt Q02248 1-781)
binding [1]: binds

B1: calnexin (endogenous in mouse brain) (protein, UniProt P35564 21-591)
chain: HDGHDDDAIDIEDDLDDVIEEVEDSKSKSDASTPPSPKVTYKAPVPTGEVYFADSFDRGSLSGWILSKAKKDDTDDEIAKYDGKWEVDEMKETKLPGDKGLVLMSRAKHHAISAKLNKPFLFDTKPLIVQYEVNFQNGIECGGAYVKLLSKTAELSLDQFHDKTPYTIMFGPDKCGEDYKLHFIFRHKNPKTGVYEEKHAKRPDADLKTYFTDKKTHLYTLILNPDNSFEILVDQSVVNSGNLLNDMTPPVNPSREIEDPEDRKPEDWDERPKIADPDAVKPDDWDEDAPSKIPDEEATKPEGWLDDEPEYIPDPDAEKPEDWDEDMDGEWEAPQIANPKCESAPGCGVWQRPMIDNPNYKGKWKPPMIDNPNYQGIWKPRKIPNPDFFEDLEPFKMTPFSAIGLELWSMTSDIFFDNFIISGDRRVVDDWANDGWGLKKAADGAAEPGVVLQMLEAAEERPWLWVVYILTVALPVFLVILFCCSGKKQSNAMEYKKTDAPQPDVKDEEGKEEEKNKRDEEEEEEKLEEKQKSDAEEDGVTGSQDEEDSKPKAEEDEILNRSPRNRKPRRE
binding [2]: no binding

From paper PMC5248453
